Experimental data reported in patent US20170158765A1 (Merck Sharp & Dohme, published 2017).
These are yes or no findings as the source states them, for the method shown. Some results given as binding are weak or reduced against the parent protein; the word gives no strength.

The chains behind the UniProt entries cited, without tags or fusion partners. Residues count along the entry.
UniProt O75022, residues 24-443: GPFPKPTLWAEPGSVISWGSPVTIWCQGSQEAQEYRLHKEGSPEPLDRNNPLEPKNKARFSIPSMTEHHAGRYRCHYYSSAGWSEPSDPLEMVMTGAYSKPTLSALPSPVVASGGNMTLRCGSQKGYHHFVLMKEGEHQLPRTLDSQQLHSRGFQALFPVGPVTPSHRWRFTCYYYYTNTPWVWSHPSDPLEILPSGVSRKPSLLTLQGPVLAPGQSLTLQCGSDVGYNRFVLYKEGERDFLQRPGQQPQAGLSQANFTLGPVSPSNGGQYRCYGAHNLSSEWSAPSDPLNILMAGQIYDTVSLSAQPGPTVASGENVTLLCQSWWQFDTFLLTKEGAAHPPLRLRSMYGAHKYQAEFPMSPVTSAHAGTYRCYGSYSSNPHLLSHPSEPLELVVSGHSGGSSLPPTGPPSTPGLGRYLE

Target: human ILT5-mouse Ig fusion protein (soluble, purified from transiently transfected 293 cells) (human) (UniProt O75022)
Experiment: ELISA of hybridoma supernatants on purified hILT5-Ig

binding: binds
B1: TRX585 mouse anti-human ILT5 monoclonal antibody (8G6 mAb, IgG1, kappa) (antibody, V domains shown)
VH: DVQLQESGPGLVKPSQSLFLTCSVTGYSISSSYYWNWIRQFPGNKLEWMGYISFDGSNNYNPSLKNRISITRDTSKNQFFLKLNSVTTEDTATYYCAREKENYYGSSFYYFDYWGLGTSLTVSS
VL: DIQMTQSPASLSVSVGETVTITCRASENIYSNLAWYQQKQGKSPQVLVYAATNLADGVPSRFSGSGSGTQFSLKINSLQSEDFGNYFCQHFWRIPWTFGGGTKLEIK
notes: Murine IgG1, kappa purified from hybridoma supernatant; also called TRX585 antibody; TRX585 mAb
